Laboratory results taken from publication PMC7819943, “Rice protein-binding microarrays: a tool to detect cis-acting elements near promoter regions in rice”.
This is one part of the list.

The chains behind the UniProt entries cited, without tags or fusion partners.
UniProt Q0JBA9, entry or part of it: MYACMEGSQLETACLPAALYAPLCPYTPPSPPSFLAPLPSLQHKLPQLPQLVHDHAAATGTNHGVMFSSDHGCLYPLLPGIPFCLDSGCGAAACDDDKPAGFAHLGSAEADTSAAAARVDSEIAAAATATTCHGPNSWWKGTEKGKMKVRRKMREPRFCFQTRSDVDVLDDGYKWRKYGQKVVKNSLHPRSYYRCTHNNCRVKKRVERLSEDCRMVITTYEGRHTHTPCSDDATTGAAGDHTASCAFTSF

Target: OsWRKY34 (Oryza sativa, UniProt Q0JBA9 1-250)
Assay: protein-binding microarray (RPBM); PBS, 2% BSA, 51.3 ng/ul salmon testes DNA, 50 uM zinc acetate, 200 nM TF, 25 C, 1 h; high values mean tight binding
Conditions: protein: recombinant; tags: N-terminal polyhistidine and DsRed monomer fusion (pET32a); label: CyDye5-dUTP incorporated in the synthesized complementary strand; 3' TTTTT single-stranded linker to array surface; dsDNA, one strand shown
Procedure, shortened: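 For the binding signal, per-feature fluorescence intensity was read in arbitrary units on an Axon 4000B scanner. Before scanning, a 2% BSA-blocked custom Agilent array made double-stranded with Cy5-dUTP was washed after 1 h at 25 °C with 200 nM protein and 50 µM zinc acetate. The proteins were Ni–NTA-purified transcription factors with N-terminal polyhistidine and DsRed fusions, expressed in E. coli BL21-CodonPlus.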

Sequence | binding signal
TCTCGGCCAACCCACATACAGCTAGCCACCATATTTTAAGCGGAGTCACCTAGTGCAG | 9970 fluorescence intensity (a.u.)
ACACAACAAAGACACCATCCATGTTTTTCTTTTTCTTTTTCGGAGTCACCTAGTGCAG | 8250 fluorescence intensity (a.u.)
ATCTGGTGCCTTTCGATTTTCACAGGAGGTCTACTAATTGCGGAGTCACCTAGTGCAG | 8240 fluorescence intensity (a.u.)
AAATATTATGTGGTCAAGTTCCTATTTTGATCCATCCACCCGGAGTCACCTAGTGCAG | 8410 fluorescence intensity (a.u.)
TTGTAACTAACTTTCTTGTTTACCGTGAGCACGTTTTTTACGGAGTCACCTAGTGCAG | 8820 fluorescence intensity (a.u.)
GTTGTTGGGTTTGCAAAAGATTCGGCCATCTCTCTTCAGCCGGAGTCACCTAGTGCAG | 8350 fluorescence intensity (a.u.)
GCCAAGAACACATCACTTCCATTAGCTCAGCTTCTCACCACGGAGTCACCTAGTGCAG | 8780 fluorescence intensity (a.u.)
TTTTTCCATACTTCAATCTTTTTTCACATCTTATCAGTTACGGAGTCACCTAGTGCAG | 11900 fluorescence intensity (a.u.)
CCATGGAAAACCCTACCACTCCTCGCGCGGTTTTACTTTGCGGAGTCACCTAGTGCAG | 8850 fluorescence intensity (a.u.)
ACCTTCTTCTTGGTCAAAGCCATCCATCCCACCACTCACCCGGAGTCACCTAGTGCAG | 8500 fluorescence intensity (a.u.)
GTACATGTACGGACACATGCCACCTTCGCGCGCCACCTACCGGAGTCACCTAGTGCAG | 8460 fluorescence intensity (a.u.)
TCTCCTAAAGATTCATGTTACGTATCTCTTACTTCAACAGCGGAGTCACCTAGTGCAG | 8710 fluorescence intensity (a.u.)
CTCTGTAATATATCATTATGACTGCTAATTCGTCTATTTTCGGAGTCACCTAGTGCAG | 8080 fluorescence intensity (a.u.)
GCCGCCACCCGCCACTGTGATCACCGCGAGCCGCCGCCAGCGGAGTCACCTAGTGCAG | 9810 fluorescence intensity (a.u.)
CACATATTTTTTATTTGAATTCGGTCCTAATGTAATTACTCGGAGTCACCTAGTGCAG | 10900 fluorescence intensity (a.u.)
TCATTGAGTTCTTGTTTTTAGTTGGTAATTCTTTCTTTATCGGAGTCACCTAGTGCAG | 11000 fluorescence intensity (a.u.)
CCACCTGTGACCTGTGTATGTGCACACTCCGTCAGACCAGCGGAGTCACCTAGTGCAG | 8810 fluorescence intensity (a.u.)
AGGAGGTAGGTTGGTAGGTTTCTATTGCTTCTTCTCAGCTCGGAGTCACCTAGTGCAG | 9510 fluorescence intensity (a.u.)
CTGCCACTTATCCACACACAACTTCATTGCAACAAATCACCGGAGTCACCTAGTGCAG | 8360 fluorescence intensity (a.u.)
CGCCGTTTCTCTCGTCGTTGACCGGAGAAATCGTCGTCTCCGGAGTCACCTAGTGCAG | 9980 fluorescence intensity (a.u.)
CCCCGTCCTGACTACCTGCTGCTCGCCTCCCATTCTTCTCCGGAGTCACCTAGTGCAG | 11200 fluorescence intensity (a.u.)

Part of the list above, as tab-separated lines:
Sequence	binding signal
CCATGGAAAACCCTACCACTCCTCGCGCGGTTTTACTTTGCGGAGTCACCTAGTGCAG	8850 fluorescence intensity (a.u.)
ACCTTCTTCTTGGTCAAAGCCATCCATCCCACCACTCACCCGGAGTCACCTAGTGCAG	8500 fluorescence intensity (a.u.)
GTACATGTACGGACACATGCCACCTTCGCGCGCCACCTACCGGAGTCACCTAGTGCAG	8460 fluorescence intensity (a.u.)
TCTCCTAAAGATTCATGTTACGTATCTCTTACTTCAACAGCGGAGTCACCTAGTGCAG	8710 fluorescence intensity (a.u.)
CTCTGTAATATATCATTATGACTGCTAATTCGTCTATTTTCGGAGTCACCTAGTGCAG	8080 fluorescence intensity (a.u.)
GCCGCCACCCGCCACTGTGATCACCGCGAGCCGCCGCCAGCGGAGTCACCTAGTGCAG	9810 fluorescence intensity (a.u.)
CACATATTTTTTATTTGAATTCGGTCCTAATGTAATTACTCGGAGTCACCTAGTGCAG	10900 fluorescence intensity (a.u.)
TCATTGAGTTCTTGTTTTTAGTTGGTAATTCTTTCTTTATCGGAGTCACCTAGTGCAG	11000 fluorescence intensity (a.u.)
CCACCTGTGACCTGTGTATGTGCACACTCCGTCAGACCAGCGGAGTCACCTAGTGCAG	8810 fluorescence intensity (a.u.)

Additional entries follow.

Sequence | binding signal
GATCTTACCCCTCAATTATGTCTCTTACGCATCAGAACTGCGGAGTCACCTAGTGCAG | 8980 fluorescence intensity (a.u.)
TGATAATTTTGGCCATTCCTAATCTGCAAACAGATCATCTCGGAGTCACCTAGTGCAG | 8060 fluorescence intensity (a.u.)
TCTCGGCCATCGCGTACTCATATATAAATCGTACGTACTCCGGAGTCACCTAGTGCAG | 8490 fluorescence intensity (a.u.)
AGTATATCTCCTTCTTCTGTTCCTGTGATGCACCTCTGATCGGAGTCACCTAGTGCAG | 8650 fluorescence intensity (a.u.)
ACCACGTTATCTCTCGTTCTCTCTCCTTTCTTCTCTCGTCCGGAGTCACCTAGTGCAG | 10800 fluorescence intensity (a.u.)
CCGAACCCCACCCCACCCCACCCGCCGCGCCACGCCATCTCGGAGTCACCTAGTGCAG | 9910 fluorescence intensity (a.u.)
ATGGTATCAGCACACAGTTAAACTATCATGTCACTTGTACCGGAGTCACCTAGTGCAG | 9030 fluorescence intensity (a.u.)
TTCCGGCAAATTCTTGCTTGCGTGAGGCCCGATCGAGCATCGGAGTCACCTAGTGCAG | 8460 fluorescence intensity (a.u.)
CTTCCCGCCTTTGCCGTCCTCGCGCCGGCACGCGCGCGCGCGGAGTCACCTAGTGCAG | 12700 fluorescence intensity (a.u.)
ATATATTCAGCTTCACCAACTAGGCCTTTTACTGAGTTCGCGGAGTCACCTAGTGCAG | 8130 fluorescence intensity (a.u.)
ACGTTAATGGTTTTTTTTTATGGGAACAAAGGTTATGTTACGGAGTCACCTAGTGCAG | 8940 fluorescence intensity (a.u.)
TGCCACGTTCACCACATAGATATCTTCCAAACTTGCTACACGGAGTCACCTAGTGCAG | 8090 fluorescence intensity (a.u.)
GTCAGTCGTCGCCTCATCGGGACAGCCTTTTTACCGTTTCCGGAGTCACCTAGTGCAG | 9720 fluorescence intensity (a.u.)
CTTTTTTTTCATACACCCTTTTTACACTTTGCTTAGTATTCGGAGTCACCTAGTGCAG | 10700 fluorescence intensity (a.u.)
TCTCTCTCCGTCTCTTGCGGTCTCGCCGTCGTCAGTCGCCCGGAGTCACCTAGTGCAG | 8200 fluorescence intensity (a.u.)
TTCTATATACCATAGTCGATCATCCCTGACTTTTTTTTTACGGAGTCACCTAGTGCAG | 8540 fluorescence intensity (a.u.)
CGCCTGGGGTAGTGTTTTTTTCTCTCTTTTTGTTCGTTATCGGAGTCACCTAGTGCAG | 9880 fluorescence intensity (a.u.)
GTGTCTTTGCTCCTTGAGTTCTGCACTAGCTAGCTAGTGTCGGAGTCACCTAGTGCAG | 8350 fluorescence intensity (a.u.)
GTTACTGACAGTGGGACCAGCAGCTACCTCCCTTGTTTACCGGAGTCACCTAGTGCAG | 9170 fluorescence intensity (a.u.)
CGCTCAATCAATCTGTACATGCTACCATGCTAGTTTCACCCGGAGTCACCTAGTGCAG | 12300 fluorescence intensity (a.u.)
AAAAAACCAAAATTTTCCTTTTCTCTTTGTTTTTTTAATACGGAGTCACCTAGTGCAG | 8720 fluorescence intensity (a.u.)
